In PMC7444085 one finds binding data, which are given here for one substance.

By UniProt entry, the sequences of proteins in these tests, tags left out.
UniProt O15524: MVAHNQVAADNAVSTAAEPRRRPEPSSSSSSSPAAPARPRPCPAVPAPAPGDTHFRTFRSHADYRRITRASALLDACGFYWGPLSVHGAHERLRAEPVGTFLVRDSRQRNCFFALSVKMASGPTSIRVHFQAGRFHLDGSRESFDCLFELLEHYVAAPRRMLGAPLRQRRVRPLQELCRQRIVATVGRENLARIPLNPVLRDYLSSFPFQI
UniProt P42224: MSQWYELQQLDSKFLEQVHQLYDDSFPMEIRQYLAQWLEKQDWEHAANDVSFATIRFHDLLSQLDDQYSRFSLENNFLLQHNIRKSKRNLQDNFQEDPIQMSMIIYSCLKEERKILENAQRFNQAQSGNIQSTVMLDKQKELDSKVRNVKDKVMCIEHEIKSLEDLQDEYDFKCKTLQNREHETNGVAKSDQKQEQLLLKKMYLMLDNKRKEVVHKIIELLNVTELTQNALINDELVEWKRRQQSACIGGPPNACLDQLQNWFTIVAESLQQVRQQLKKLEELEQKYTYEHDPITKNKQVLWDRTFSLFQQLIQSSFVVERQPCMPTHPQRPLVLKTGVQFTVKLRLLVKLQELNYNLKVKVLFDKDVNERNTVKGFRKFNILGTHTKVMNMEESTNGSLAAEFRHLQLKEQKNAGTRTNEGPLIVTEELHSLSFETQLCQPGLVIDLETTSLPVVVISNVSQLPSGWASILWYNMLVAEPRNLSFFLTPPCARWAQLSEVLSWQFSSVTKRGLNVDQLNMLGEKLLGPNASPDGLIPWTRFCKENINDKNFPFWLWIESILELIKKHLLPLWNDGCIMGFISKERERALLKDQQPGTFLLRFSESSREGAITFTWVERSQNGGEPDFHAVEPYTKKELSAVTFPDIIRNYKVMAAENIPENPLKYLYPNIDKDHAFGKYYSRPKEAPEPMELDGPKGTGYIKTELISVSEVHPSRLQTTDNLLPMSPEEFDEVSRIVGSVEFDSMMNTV

This test has as its target SOCS1 (human (endogenous in NPC cell lines)) (UniProt O15524). As to the kind of experiment: co-IP; primary antibody against SOCS1 or STAT1 added to NPC cell lysate, overnight at 4 °C; protein A/G agarose beads 2 h at 4 °C; normal human IgG as negative control; washes with PBS and cell lysis buffer; western blot. A general note: A western blot detects proteins with antibodies after separation by electrophoresis.

No constants are given. Whether binding was seen depends on the method and setting. Binding seen in cells or lysates may run through a third protein. Some entries that bind do so weakly or less than the wild type.

For the substance STAT1 (from UniProt P42224 1-750), the binding entry is reported as “binds”.
